Test results: the supplement of paper PMC10849652
Some of the results follow.

The chains behind the UniProt entries cited, without tags or fusion partners. Where a name states a change or a piece, a line headed by the entry shows the natural chain unless it says otherwise.
UniProt P51114, whole entry, looked up: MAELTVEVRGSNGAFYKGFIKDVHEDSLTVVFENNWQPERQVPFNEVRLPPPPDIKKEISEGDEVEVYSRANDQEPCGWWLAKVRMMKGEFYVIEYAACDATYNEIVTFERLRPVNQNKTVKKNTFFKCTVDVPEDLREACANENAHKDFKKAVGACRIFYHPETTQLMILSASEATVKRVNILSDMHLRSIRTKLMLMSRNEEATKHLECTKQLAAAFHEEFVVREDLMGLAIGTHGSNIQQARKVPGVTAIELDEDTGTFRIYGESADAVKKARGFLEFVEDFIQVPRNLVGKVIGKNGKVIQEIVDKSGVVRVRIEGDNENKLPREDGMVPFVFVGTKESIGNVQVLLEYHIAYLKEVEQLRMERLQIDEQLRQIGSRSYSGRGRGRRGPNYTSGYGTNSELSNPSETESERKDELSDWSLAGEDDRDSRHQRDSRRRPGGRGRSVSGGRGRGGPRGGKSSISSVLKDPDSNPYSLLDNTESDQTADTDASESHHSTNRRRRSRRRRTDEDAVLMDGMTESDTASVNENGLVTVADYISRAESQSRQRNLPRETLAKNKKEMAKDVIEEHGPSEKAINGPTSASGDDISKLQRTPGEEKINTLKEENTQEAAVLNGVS
UniProt Q86YP4: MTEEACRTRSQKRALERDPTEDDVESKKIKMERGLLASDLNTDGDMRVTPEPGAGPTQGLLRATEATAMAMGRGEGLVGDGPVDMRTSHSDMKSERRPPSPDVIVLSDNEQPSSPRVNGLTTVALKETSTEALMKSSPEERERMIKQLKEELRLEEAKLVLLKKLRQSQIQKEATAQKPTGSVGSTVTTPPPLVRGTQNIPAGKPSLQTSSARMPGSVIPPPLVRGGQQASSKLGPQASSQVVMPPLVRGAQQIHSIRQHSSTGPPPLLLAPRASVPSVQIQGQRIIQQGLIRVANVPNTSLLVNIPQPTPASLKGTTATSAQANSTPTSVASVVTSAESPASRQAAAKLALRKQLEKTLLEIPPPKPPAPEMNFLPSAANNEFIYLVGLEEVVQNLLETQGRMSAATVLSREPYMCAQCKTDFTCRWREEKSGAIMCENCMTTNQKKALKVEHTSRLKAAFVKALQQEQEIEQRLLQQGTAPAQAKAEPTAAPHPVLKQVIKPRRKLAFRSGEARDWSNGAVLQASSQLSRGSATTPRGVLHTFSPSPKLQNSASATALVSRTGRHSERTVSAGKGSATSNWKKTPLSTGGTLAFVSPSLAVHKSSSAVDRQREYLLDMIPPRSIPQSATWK
UniProt Q14C86: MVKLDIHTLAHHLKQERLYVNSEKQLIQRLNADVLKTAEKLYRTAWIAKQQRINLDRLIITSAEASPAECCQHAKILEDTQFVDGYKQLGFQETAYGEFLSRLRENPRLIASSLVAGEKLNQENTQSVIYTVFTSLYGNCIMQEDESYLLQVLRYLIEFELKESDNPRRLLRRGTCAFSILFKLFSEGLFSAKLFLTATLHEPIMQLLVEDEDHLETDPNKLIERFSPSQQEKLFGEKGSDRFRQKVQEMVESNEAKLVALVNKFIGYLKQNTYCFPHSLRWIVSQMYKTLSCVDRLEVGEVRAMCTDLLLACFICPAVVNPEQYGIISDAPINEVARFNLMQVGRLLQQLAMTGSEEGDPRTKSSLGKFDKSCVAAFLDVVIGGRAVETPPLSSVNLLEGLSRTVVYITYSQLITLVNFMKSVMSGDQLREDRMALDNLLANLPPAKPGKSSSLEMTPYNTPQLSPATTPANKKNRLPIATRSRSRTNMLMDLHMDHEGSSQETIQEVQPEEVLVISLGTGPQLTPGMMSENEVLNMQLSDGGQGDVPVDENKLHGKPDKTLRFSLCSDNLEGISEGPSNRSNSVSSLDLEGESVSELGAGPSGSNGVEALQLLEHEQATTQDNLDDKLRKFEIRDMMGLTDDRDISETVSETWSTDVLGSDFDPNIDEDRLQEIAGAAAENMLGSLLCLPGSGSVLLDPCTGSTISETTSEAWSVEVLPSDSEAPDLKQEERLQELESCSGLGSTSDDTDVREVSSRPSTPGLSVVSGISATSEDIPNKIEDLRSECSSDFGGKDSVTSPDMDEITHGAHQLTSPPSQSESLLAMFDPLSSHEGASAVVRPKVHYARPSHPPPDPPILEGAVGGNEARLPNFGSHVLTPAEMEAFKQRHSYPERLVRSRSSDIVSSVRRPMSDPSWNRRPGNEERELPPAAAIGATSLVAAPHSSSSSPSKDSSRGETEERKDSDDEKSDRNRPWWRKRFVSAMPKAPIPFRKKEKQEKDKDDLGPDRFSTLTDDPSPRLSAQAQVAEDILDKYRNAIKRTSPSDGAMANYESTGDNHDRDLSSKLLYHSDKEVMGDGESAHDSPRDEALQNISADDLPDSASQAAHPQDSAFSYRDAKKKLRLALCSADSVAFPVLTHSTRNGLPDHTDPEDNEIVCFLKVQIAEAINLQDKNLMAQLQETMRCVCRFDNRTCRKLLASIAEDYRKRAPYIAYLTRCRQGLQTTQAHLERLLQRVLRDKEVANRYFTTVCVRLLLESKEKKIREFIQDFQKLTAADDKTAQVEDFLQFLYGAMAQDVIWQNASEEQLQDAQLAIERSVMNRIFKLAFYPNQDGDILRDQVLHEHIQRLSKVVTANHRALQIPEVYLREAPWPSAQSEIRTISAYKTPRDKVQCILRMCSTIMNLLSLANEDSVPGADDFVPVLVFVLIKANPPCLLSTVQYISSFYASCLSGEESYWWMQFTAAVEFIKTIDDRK
UniProt Q7Z7M9: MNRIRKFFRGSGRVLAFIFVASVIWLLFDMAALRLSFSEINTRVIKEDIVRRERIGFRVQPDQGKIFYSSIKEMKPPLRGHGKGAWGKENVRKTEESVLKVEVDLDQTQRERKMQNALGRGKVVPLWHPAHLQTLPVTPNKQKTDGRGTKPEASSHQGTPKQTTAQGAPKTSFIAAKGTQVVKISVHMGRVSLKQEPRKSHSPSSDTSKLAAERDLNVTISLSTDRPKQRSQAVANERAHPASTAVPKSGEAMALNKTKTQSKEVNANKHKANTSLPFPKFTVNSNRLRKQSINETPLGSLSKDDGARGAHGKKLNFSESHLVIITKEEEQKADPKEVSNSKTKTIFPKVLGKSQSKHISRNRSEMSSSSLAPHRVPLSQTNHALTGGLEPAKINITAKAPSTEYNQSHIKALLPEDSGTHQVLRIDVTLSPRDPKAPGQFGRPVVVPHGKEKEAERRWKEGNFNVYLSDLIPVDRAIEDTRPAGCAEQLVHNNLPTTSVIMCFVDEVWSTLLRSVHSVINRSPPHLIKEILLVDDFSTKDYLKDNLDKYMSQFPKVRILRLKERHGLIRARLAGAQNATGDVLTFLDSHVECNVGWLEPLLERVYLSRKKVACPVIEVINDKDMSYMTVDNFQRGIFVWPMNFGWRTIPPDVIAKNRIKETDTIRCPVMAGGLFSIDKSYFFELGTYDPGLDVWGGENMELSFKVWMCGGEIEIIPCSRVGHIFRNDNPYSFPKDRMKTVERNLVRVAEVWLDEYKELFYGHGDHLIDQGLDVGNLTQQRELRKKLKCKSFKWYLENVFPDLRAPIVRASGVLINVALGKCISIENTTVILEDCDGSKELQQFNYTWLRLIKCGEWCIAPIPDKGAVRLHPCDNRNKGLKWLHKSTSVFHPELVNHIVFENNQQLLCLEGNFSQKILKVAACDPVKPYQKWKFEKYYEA
UniProt Q9C0B1, whole entry, looked up: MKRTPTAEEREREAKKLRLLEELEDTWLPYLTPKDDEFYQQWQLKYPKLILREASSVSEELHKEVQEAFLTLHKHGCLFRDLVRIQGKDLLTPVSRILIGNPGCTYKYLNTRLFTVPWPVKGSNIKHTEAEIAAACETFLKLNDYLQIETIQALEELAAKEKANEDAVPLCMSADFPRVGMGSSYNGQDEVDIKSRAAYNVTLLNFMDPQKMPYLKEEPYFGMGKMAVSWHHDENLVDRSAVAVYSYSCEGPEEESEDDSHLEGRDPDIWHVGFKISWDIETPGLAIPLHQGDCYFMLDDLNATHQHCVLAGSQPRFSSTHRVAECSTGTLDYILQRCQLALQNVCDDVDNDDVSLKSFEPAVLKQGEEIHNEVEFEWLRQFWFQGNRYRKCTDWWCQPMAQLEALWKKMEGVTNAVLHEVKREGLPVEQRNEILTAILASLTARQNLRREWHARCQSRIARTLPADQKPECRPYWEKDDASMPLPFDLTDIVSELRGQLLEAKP
UniProt P51570: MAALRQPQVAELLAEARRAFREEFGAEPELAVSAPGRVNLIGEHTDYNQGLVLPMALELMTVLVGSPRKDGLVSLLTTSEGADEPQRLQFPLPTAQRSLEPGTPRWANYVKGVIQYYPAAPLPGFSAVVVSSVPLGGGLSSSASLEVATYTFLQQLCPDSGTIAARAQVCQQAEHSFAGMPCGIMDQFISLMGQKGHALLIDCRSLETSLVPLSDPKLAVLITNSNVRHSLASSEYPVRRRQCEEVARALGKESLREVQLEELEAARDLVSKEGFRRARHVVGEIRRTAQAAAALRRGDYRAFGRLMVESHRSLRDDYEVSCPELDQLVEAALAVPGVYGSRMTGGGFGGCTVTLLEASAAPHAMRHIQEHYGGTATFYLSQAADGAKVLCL
UniProt P02794, whole entry, looked up: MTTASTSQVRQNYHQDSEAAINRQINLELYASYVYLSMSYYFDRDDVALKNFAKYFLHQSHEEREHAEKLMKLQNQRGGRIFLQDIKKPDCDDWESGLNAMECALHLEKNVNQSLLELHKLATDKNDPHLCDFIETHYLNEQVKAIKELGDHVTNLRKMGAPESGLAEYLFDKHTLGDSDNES
UniProt P04406: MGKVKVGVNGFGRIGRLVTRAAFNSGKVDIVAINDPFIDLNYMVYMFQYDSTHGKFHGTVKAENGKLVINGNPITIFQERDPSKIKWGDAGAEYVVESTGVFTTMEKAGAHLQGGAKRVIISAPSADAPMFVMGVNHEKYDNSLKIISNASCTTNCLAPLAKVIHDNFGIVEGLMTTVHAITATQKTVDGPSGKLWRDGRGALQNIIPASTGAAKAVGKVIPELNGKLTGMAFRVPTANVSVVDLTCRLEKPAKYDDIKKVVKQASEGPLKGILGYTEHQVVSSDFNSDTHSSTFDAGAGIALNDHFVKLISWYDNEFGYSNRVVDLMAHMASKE
UniProt P50395: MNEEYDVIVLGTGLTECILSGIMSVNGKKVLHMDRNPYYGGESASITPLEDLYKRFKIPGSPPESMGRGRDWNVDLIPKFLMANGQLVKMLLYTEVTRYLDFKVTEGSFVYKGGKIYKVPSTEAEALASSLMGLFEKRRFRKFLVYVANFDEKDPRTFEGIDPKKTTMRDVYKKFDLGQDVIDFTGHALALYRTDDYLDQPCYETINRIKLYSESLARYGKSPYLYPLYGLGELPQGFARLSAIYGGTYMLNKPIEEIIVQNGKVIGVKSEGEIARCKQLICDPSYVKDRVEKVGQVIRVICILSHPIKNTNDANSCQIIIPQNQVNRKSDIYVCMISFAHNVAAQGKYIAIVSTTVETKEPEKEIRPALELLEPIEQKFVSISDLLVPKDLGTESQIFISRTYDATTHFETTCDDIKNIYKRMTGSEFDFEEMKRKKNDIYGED
UniProt Q04446: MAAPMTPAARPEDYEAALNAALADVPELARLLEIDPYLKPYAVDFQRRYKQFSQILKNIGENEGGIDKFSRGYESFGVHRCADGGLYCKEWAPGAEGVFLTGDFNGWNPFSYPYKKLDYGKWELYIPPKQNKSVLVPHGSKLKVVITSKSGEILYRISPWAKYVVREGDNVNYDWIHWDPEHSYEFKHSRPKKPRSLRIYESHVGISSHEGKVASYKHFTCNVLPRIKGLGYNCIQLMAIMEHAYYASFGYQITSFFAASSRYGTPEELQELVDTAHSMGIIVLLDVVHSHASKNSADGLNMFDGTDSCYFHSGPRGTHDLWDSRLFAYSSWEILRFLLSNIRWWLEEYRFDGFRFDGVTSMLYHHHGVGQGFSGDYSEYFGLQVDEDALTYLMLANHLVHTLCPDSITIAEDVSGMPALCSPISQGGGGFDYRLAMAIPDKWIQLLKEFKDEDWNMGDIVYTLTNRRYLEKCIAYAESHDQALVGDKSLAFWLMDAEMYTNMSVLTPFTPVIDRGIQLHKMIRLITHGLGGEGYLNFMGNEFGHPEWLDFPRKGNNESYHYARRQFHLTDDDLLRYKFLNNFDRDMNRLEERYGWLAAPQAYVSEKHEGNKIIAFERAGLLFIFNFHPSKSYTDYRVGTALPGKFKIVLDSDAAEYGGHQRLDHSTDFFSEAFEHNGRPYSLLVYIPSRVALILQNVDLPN

Assays:
Experiment in all cases: log2 fold change, soluble protein after heating vs DMSO (PISA); higher = thermal stabilisation; K562 lysate, 10 uM; active = over 0.2 and 3.5 SD of the protein, either way, in both replicates (recomputed)
nilotinib = compound: Cc1cn(-c2cc(NC(=O)c3ccc(C)c(Nc4nccc(-c5cccnc5)n4)c3)cc(C(F)(F)F)c2)cn1 [nilotinib]
Method in brief: (§1)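 Pellets of K562 cells were dounce-homogenised in PBS pH 7.4 with 1 mM MgCl2, and the crude extract was held at 1 mg/mL protein for a 30 min treatment with 10 μM compound. Aliquots were heated for 3 min over 48°C-58°C and pooled before NP-40 was added to 0.5% at 4°C. The supernatant from 21,000xg for 90 min was quantified by TMTpro 16plex LC-MS/MS with channel sums equalised. Values are reported from duplicates as log-two fold change in thermal stability relative to solvent controls.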

[1] = compound: Cc1nc(Nc2n[nH]c3c2CN(C(=O)N[C@H](CN(C)C)c2ccccc2)C3(C)C)c2sccc2n1
Method in brief: as §1

dasatinib = compound: Cc1nc(Nc2ncc(C(=O)Nc3c(C)cccc3Cl)s2)cc(N2CCN(CCO)CC2)n1 [dasatinib]
Method in brief: as §1

[2] = compound: Cc1ncc(-c2ccnc(Nc3ccc(S(C)(=O)=O)cc3)n2)n1C(C)C
Method in brief: as §1

[3] = compound: Cn1cc(-c2ccc3c(c2)CCN3C(=O)Cc2cccc(C(F)(F)F)c2)c2c(N)ncnc21
Method in brief: as §1

quisinostat = compound: Cn1cc(CNCC2CCN(c3ncc(C(=O)NO)cn3)CC2)c2ccccc21 [quisinostat]
Method in brief: as §1

tipifarnib = compound: Cn1cncc1[C@@](N)(c1ccc(Cl)cc1)c1ccc2c(c1)c(-c1cccc(Cl)c1)cc(=O)n2C [tipifarnib]
Method in brief: as §1

[4] = compound: NC(=O)Nc1cc(-c2cccc(F)c2)sc1C(=O)N[C@H]1CCCNC1
Method in brief: as §1

[5] = compound: NC(=O)c1cnc(N[C@@H]2CCCC[C@@H]2N)nc1Nc1cccc(-n2nccn2)c1
Method in brief: as §1

[6] = compound: NC1(c2ccc(-c3nc4ccn5c(=O)[nH]nc5c4cc3-c3ccccc3)cc2)CCC1
Method in brief: as §1

[7] = compound: NCC(=O)Nc1ccc(-n2nc(C(F)(F)F)cc2-c2ccc3c(ccc4ccccc43)c2)cc1
Method in brief: as §1

vorinostat = compound: O=C(CCCCCCC(=O)Nc1ccccc1)NO [vorinostat]
Method in brief: as §1

silmitasertib = compound: O=C(O)c1ccc2c(c1)nc(Nc1cccc(Cl)c1)c1ccncc12 [silmitasertib]
Method in brief: as §1

[8] = compound: O=C1NC(=O)C(c2cnc3ccccn23)=C1c1cn2c3c(cc(F)cc13)CN(C(=O)N1CCCCC1)CC2
Method in brief: as §1

entospletinib = compound: c1cn2cc(-c3ccc4cn[nH]c4c3)nc(Nc3ccc(N4CCOCC4)cc3)c2n1 [entospletinib]
Method in brief: as §1

Measured: log2 fold change

FXR1 (UniProt P51114)
inactive: nilotinib -0.139 | [1] 0.031 | dasatinib 0.028 | [2] -0.011 | [3] 0.018 | quisinostat -0.057 | tipifarnib -0.005 | [4] 0.024 | [5] -0.001 | [6] -0.047 | [7] -0.006 | silmitasertib 0.045 | [8] -0.041 | entospletinib 0.023
active: vorinostat -0.257

GEMIN6 (UniProt Q8WXD5)
inactive: nilotinib 0.007 | [1] -0.029 | dasatinib 0.031 | [2] -0.002 | [3] -0.001 | quisinostat 0.047 | tipifarnib 0.032 | [4] -0.028 | [5] 0.005 | [6] -0.007 | [7] -0.008 | vorinostat -0.071 | silmitasertib -0.012 | [8] 0.01 | entospletinib 0.007

GATAD2A isoform 3 (UniProt Q86YP4)
active: vorinostat -0.213
inactive: nilotinib 0.041 | [1] 0.001 | dasatinib 0.006 | [2] -0.009 | [3] 0.001 | quisinostat -0.074 | tipifarnib -0.009 | [4] 0.032 | [5] 0.002 | [6] -0.024 | [7] 0.023 | silmitasertib -0.028 | [8] 0.019 | entospletinib -0.001

GAPVD1 isoform 6 (UniProt Q14C86)
active: vorinostat -0.292
inactive: nilotinib 0.006 | [1] 0.005 | dasatinib -0.05 | [2] -0.005 | [3] 0.044 | quisinostat -0.029 | tipifarnib -0.02 | [4] 0.032 | [5] 0.013 | [6] 0.026 | [7] -0.033 | silmitasertib 0.04 | [8] -0.001 | entospletinib -0.002

GALNT5 (UniProt Q7Z7M9)
inactive: nilotinib -0.022 | [1] -0.051 | dasatinib -0.017 | [2] 0.01 | [3] -0.01 | quisinostat 0.018 | tipifarnib -0.037 | [4] -0.014 | [5] 0.036 | [6] 0.013 | [7] -0.016 | vorinostat 0.118 | silmitasertib 0.001 | [8] -0.052 | entospletinib 0.012

FUBP1 isoform 2 (UniProt Q96AE4)
inactive: nilotinib -0.015 | [1] 0 | dasatinib 0.01 | [2] 0.016 | [3] 0.004 | quisinostat 0.017 | tipifarnib 0.004 | [4] -0.022 | [5] 0.002 | [6] 0.01 | [7] 0.005 | vorinostat 0.128 | silmitasertib 0.005 | [8] -0.027 | entospletinib 0.008

FREM2 (UniProt Q5SZK8)
inactive: nilotinib -0.108 | [1] 0.041 | dasatinib -0.071 | [2] -0.113 | [3] -0.014 | quisinostat -0.223 | tipifarnib -0.168 | [4] 0.048 | [5] 0.059 | [6] 0.04 | [7] 0.094 | vorinostat 0.048 | silmitasertib 0.085 | [8] -0.11 | entospletinib -0.003

FOXK1 (UniProt P85037)
active: vorinostat -0.414
inactive: nilotinib -0.006 | [1] -0.014 | dasatinib -0.065 | [2] -0.038 | [3] 0.004 | quisinostat -0.031 | tipifarnib -0.042 | [4] -0.002 | [5] -0.011 | [6] 0.007 | [7] 0.022 | silmitasertib -0.026 | [8] -0.048 | entospletinib 0.038

FRG1 (UniProt Q14331)
inactive: nilotinib -0.166 | [1] 0.052 | dasatinib 0.056 | [2] -0.105 | [3] 0.017 | quisinostat 0.069 | tipifarnib -0.001 | [4] 0.018 | [5] 0.012 | [6] -0.005 | [7] -0.007 | vorinostat -0.063 | silmitasertib -0.002 | [8] 0.037 | entospletinib -0.02

FTO (UniProt Q9C0B1)
inactive: nilotinib -0.017 | [1] -0.007 | dasatinib -0.003 | [2] 0.014 | [3] -0.025 | quisinostat -0.021 | tipifarnib 0.021 | [4] -0.024 | [5] 0.002 | [6] 0 | [7] 0.006 | vorinostat -0.03 | silmitasertib 0.041 | [8] 0.005 | entospletinib 0.006

FUCA1 (UniProt P04066)
inactive: nilotinib -0.007 | [1] -0.014 | dasatinib 0.03 | [2] -0.049 | [3] 0.006 | quisinostat -0.074 | tipifarnib 0.026 | [4] -0.005 | [5] 0.048 | [6] -0.028 | [7] 0.004 | vorinostat 0.111 | silmitasertib 0.024 | [8] -0.049 | entospletinib 0.027

GALNT2 (UniProt Q10471)
inactive: nilotinib -0.02 | [1] -0.054 | dasatinib 0.003 | [2] 0.008 | [3] 0.008 | quisinostat 0.081 | tipifarnib -0.067 | [4] -0.004 | [5] -0.002 | [6] -0.031 | [7] -0.018 | vorinostat 0.069 | silmitasertib 0.008 | [8] -0.09 | entospletinib -0.034

GALK1 isoform 2 (UniProt P51570)
active: vorinostat -0.338
inactive: nilotinib 0.01 | [1] -0.018 | dasatinib -0.024 | [2] -0.014 | [3] 0.03 | quisinostat -0.051 | tipifarnib 0.002 | [4] 0.04 | [5] -0.033 | [6] -0.006 | [7] -0.017 | silmitasertib 0.063 | [8] 0.023 | entospletinib -0.088

FTH1 (UniProt P02794)
inactive: nilotinib 0.039 | [1] 0.077 | dasatinib -0.026 | [2] 0.038 | [3] 0.007 | quisinostat 0.042 | tipifarnib -0.022 | [4] -0.01 | [5] 0.035 | [6] 0.042 | [7] -0.026 | vorinostat 0.068 | silmitasertib 0.013 | [8] -0.003 | entospletinib -0.038

Taken from above (5 entries):
FTO (UniProt Q9C0B1)
inactive: nilotinib -0.017 | [1] -0.007 | dasatinib -0.003 | [2] 0.014 | [3] -0.025 | quisinostat -0.021 | tipifarnib 0.021 | [4] -0.024 | [5] 0.002 | [6] 0 | [7] 0.006 | vorinostat -0.03 | silmitasertib 0.041 | [8] 0.005 | entospletinib 0.006

FUCA1 (UniProt P04066)
inactive: nilotinib -0.007 | [1] -0.014 | dasatinib 0.03 | [2] -0.049 | [3] 0.006 | quisinostat -0.074 | tipifarnib 0.026 | [4] -0.005 | [5] 0.048 | [6] -0.028 | [7] 0.004 | vorinostat 0.111 | silmitasertib 0.024 | [8] -0.049 | entospletinib 0.027

GALNT2 (UniProt Q10471)
inactive: nilotinib -0.02 | [1] -0.054 | dasatinib 0.003 | [2] 0.008 | [3] 0.008 | quisinostat 0.081 | tipifarnib -0.067 | [4] -0.004 | [5] -0.002 | [6] -0.031 | [7] -0.018 | vorinostat 0.069 | silmitasertib 0.008 | [8] -0.09 | entospletinib -0.034

GALK1 isoform 2 (UniProt P51570)
active: vorinostat -0.338
inactive: nilotinib 0.01 | [1] -0.018 | dasatinib -0.024 | [2] -0.014 | [3] 0.03 | quisinostat -0.051 | tipifarnib 0.002 | [4] 0.04 | [5] -0.033 | [6] -0.006 | [7] -0.017 | silmitasertib 0.063 | [8] 0.023 | entospletinib -0.088

FTH1 (UniProt P02794)
inactive: nilotinib 0.039 | [1] 0.077 | dasatinib -0.026 | [2] 0.038 | [3] 0.007 | quisinostat 0.042 | tipifarnib -0.022 | [4] -0.01 | [5] 0.035 | [6] 0.042 | [7] -0.026 | vorinostat 0.068 | silmitasertib 0.013 | [8] -0.003 | entospletinib -0.038

Next entries follow.

GAK (UniProt O14976)
inactive: nilotinib 0.146 | [1] 0.32 | dasatinib 0.561 | [2] 0.063 | [3] -0.024 | quisinostat -0.168 | tipifarnib -0.418 | [4] 0.527 | [5] -0.006 | [6] -0.031 | [7] 0.186 | vorinostat -0.027 | silmitasertib 0.405 | [8] -0.022 | entospletinib 0.076

GAPDH (UniProt P04406)
active: vorinostat 0.309
inactive: nilotinib 0.045 | [1] -0.026 | dasatinib -0.001 | [2] -0.023 | [3] 0 | quisinostat 0.114 | tipifarnib 0.042 | [4] 0 | [5] -0.019 | [6] 0.018 | [7] 0 | silmitasertib -0.033 | [8] 0.014 | entospletinib 0.003

GALNT6 (UniProt Q8NCL4)
inactive: nilotinib 0.049 | [1] -0.113 | dasatinib 0.089 | [2] 0.036 | [3] -0.152 | quisinostat 0.026 | tipifarnib -0.112 | [4] -0.122 | [5] -0.094 | [6] -0.075 | [7] -0.087 | vorinostat 0.082 | silmitasertib -0.035 | [8] 0.067 | entospletinib -0.037

GAGE2A (UniProt Q6NT46)
inactive: nilotinib 0.006 | [1] 0.012 | dasatinib 0.056 | [2] -0.018 | [3] -0.091 | quisinostat -0.05 | tipifarnib 0.102 | [4] 0.001 | [5] -0.039 | [6] -0.023 | [7] 0.017 | vorinostat 0.132 | silmitasertib -0.105 | [8] -0.001 | entospletinib -0.154

GDI2 (UniProt P50395)
inactive: nilotinib -0.001 | [1] 0.006 | dasatinib 0.002 | [2] 0.009 | [3] -0.022 | quisinostat 0.054 | tipifarnib 0.007 | [4] -0.004 | [5] -0.003 | [6] 0.002 | [7] 0 | vorinostat 0.111 | silmitasertib 0.004 | [8] 0.012 | entospletinib -0.004

GAMT (UniProt Q14353)
active: vorinostat -0.423
inactive: nilotinib -0.017 | [1] 0.022 | dasatinib 0.03 | [2] 0.129 | [3] -0.025 | quisinostat -0.043 | tipifarnib -0.137 | [4] 0.024 | [5] -0.016 | [6] -0.002 | [7] -0.046 | silmitasertib -0.008 | [8] -0.049 | entospletinib -0.001

GBE1 (UniProt Q04446)
inactive: nilotinib 0.006 | [1] 0 | dasatinib -0.088 | [2] -0.014 | [3] 0 | quisinostat 0.007 | tipifarnib -0.029 | [4] 0.033 | [5] -0.004 | [6] 0.011 | [7] -0.013 | vorinostat 0.015 | silmitasertib 0.019 | [8] -0.035 | entospletinib 0.063
